Results are given in words; binding and its absence hold for the method and conditions named. In cells and extracts the contact can be indirect. Some binding calls cover weakened binding; strength is not graded here.

By UniProt entry, the sequences of proteins in these tests, tags left out.
UniProt Q7TSE9: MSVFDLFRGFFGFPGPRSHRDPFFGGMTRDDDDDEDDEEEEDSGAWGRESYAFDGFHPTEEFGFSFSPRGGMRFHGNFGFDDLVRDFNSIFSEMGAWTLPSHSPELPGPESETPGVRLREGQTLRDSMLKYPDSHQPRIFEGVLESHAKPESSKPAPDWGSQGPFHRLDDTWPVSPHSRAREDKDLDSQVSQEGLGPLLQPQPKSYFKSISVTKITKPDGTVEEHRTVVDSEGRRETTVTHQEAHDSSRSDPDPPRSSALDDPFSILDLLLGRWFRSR

The source of these data is PMC10337067.

In this assay the target is hematopoietic-lineage substrate-1-associated protein X-1 (HAX1) (rat (endogenous in rat liver tissue)) (UniProt Q7TSE9). Put plainly: co-IP; rat liver tissue lysate (500 ug protein) incubated with 10 ug anti-HAX1 antibody overnight at 4 C, protein A/G magnetic beads 1 h at room temperature, western blotting; livers of the sham, CS, HOPE and HOPE + AG490 groups of the DCD rat model. Background: A western blot detects proteins with antibodies after separation by electrophoresis.

For “Sarco/endoplasmic reticulum calcium ATPase 2b (SERCA2b) (from UniProt P11507-1 1-1043)”, the binding entry is on record as “binds”.
